Assay results as given in PMC6399928.
These are yes or no findings as the source states them, for the method shown. In cells and extracts the contact can be indirect. Some results given as binding are weak or reduced against the parent protein; the word gives no strength.

Sequences of proteins named here, by UniProt entry; tags and fusion partners are left off. Residues count along the entry.
UniProt Q14247: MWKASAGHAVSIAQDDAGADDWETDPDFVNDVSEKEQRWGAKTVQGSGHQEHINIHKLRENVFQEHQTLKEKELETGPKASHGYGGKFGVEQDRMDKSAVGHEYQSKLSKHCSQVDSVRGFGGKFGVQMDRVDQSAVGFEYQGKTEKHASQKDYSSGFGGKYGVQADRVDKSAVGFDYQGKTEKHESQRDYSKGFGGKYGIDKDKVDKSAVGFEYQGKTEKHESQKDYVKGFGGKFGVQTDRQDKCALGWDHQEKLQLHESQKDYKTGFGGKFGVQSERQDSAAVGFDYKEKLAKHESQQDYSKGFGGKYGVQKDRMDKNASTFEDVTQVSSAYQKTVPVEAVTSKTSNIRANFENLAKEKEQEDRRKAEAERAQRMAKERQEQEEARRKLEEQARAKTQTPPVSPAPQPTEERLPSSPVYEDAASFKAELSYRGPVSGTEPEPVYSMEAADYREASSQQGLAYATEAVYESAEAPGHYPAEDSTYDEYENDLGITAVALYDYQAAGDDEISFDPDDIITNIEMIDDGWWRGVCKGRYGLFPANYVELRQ
UniProt P16070, residues 21-742: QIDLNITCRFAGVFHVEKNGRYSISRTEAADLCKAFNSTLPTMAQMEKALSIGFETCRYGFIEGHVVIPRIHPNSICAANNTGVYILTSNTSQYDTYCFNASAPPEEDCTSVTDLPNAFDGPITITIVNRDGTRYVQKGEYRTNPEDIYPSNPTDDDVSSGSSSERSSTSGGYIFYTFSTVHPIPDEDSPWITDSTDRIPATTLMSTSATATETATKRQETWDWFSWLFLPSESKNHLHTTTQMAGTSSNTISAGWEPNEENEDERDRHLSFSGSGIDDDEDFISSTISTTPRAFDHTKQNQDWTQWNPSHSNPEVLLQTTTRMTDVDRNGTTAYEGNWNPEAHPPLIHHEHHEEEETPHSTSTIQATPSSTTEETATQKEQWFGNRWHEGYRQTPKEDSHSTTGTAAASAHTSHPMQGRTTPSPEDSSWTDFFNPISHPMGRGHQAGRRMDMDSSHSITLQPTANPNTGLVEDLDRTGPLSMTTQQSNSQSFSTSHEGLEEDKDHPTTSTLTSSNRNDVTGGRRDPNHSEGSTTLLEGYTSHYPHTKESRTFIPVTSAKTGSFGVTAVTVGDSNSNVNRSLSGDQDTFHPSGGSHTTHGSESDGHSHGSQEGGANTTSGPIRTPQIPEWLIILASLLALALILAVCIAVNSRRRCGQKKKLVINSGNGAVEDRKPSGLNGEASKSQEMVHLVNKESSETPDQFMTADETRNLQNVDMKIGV

Target: T1, RNF128 (human) (UniProt Q8TEB7)
T1 sequence: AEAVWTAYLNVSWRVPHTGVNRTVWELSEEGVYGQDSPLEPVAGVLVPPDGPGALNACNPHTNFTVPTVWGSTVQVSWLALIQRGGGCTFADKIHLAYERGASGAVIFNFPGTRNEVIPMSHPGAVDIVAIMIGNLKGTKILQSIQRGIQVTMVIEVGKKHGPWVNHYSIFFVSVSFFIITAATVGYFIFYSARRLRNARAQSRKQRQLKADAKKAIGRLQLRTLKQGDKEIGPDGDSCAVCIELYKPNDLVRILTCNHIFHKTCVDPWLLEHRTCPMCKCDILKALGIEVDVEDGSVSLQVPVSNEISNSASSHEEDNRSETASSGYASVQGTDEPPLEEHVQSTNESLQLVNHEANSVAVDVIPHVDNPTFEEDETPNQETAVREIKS
Assay: co-IP; precleared cell lysates incubated with a primary antibody overnight at 4 °C, protein A- and G-Sepharose beads 2 h, washed three times with lysis buffer, western blot; cells and precipitating antibody not given

| Substance | binding |
| --- | --- |
| cortactin (CTTN) (from UniProt Q14247 1-550) | binds |
| CD44 (from UniProt P16070 21-742) | binds |
